For the assay, the target named is Cytochrome P450 3A4 (Homo sapiens, UniProt P08684).

Chains of the proteins cited; added tags and fusions are not shown.
UniProt P08684, whole entry: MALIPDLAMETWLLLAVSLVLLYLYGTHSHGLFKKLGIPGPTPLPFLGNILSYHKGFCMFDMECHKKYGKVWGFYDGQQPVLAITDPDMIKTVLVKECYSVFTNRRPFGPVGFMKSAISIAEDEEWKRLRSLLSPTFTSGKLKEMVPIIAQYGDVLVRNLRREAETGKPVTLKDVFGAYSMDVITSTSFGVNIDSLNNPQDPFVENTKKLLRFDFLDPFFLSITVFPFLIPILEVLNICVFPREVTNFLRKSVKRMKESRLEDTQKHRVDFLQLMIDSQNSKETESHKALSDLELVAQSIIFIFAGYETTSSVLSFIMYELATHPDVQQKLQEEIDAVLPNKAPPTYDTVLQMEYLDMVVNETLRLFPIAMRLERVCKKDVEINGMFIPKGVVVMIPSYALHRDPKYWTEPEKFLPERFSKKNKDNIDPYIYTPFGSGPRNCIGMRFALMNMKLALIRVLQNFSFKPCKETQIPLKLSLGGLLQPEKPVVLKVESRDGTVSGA

As to `CC(C)=CCC[C@]1(C)[C@@H](CC=C(C)C)C[C@]2(CC=C(C)C)C(=O)C(CC=C(C)C)=C(O)[C@@]1(C(=O)C(C)C)C2=O`, 2.3 µM corresponded to half-maximal inhibition (IC50).

The values above are taken from ChEMBL document CHEMBL1157752, “Lessons learned from herbal medicinal products: the example of St. John's Wort (perpendicular)” (J Nat Prod, 2010).
